# Assay results taken from the supplement of paper PMC3334620.
# Over roughly 33,000 sequences, “E-score (-0.5 to 0.5)” has its median near -0.0059; the highest 2% begin near 0.26. This is one part of the list.
# Biological target: T1, Cin5 (UniProt P40917)
# T1 sequence: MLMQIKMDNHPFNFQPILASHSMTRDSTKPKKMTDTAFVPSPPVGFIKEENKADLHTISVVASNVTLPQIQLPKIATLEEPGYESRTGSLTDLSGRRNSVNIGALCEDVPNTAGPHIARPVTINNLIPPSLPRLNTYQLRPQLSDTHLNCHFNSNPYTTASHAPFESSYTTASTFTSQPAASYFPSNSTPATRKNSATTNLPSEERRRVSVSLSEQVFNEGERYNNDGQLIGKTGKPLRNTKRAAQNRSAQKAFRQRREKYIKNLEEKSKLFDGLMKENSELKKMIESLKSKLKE
# Assay: PBM E-score (8-mer binding enrichment) (E-score (-0.5 to 0.5)); higher = stronger / more preferred TF binding
# Conditions: protein concentration: 100 nM; construct: GST-full length
# Method: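 Universal 'all 10-mer' protein binding microarrays (Agilent AMADID 015681) probed with GST-tagged S. cerevisiae TFs (full-length or DBD) made by in vitro transcription/translation (PURExpress), about 100-200 nM. Bound TF was detected with fluorescent anti-GST. Each ungapped 8-mer (which stands for itself and its reverse complement) is scored by the PBM enrichment score (E-score), a modified Wilcoxon-Mann-Whitney statistic from -0.5 to +0.5, computed with the Universal PBM Analysis Suite. Scale: above 0.35 generally sequence-specific binding.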
row,Sequence,PBM E-score
1,AATTCCGG,0.155
2,GAGCTAAC,0.0137
3,AGTCAGTC,-0.15
4,ACCCCAAT,0.0988
5,GCCGGCCA,0.0436
6,ACTCAACC,0.0912
7,CGATGCCG,-0.246
8,CCCATCCA,0.0648
9,CAAAGCAA,0.137
10,CGAGCGGC,-0.0196
11,GCCAAACC,-0.207
12,GTGAGACA,-0.0456
13,ATCCTATC,0.0368
14,AGTCCTTC,-0.296
15,ATAGGAAA,0.192
16,ATAATTTC,0.136
17,GCTCCTCA,-0.351
18,AGTCAGTA,0.188
19,TATACTCA,0.21
20,CCGAAGAA,-0.0648
21,ACGAACCC,-0.164
22,CTCGTATC,0.0387
23,CGGTTTCC,0.0337
24,CAACAGTC,-0.158
25,AATCACGA,0.0391

row,Sequence,PBM E-score
1,CCCTAGGA,-0.242
2,AGGTACAT,-0.0367
3,CGTGCATA,0.0611
4,TTAGATAA,0.32
5,TCGGACAA,0.0752
6,ATAAGGTG,0.0425
7,GACATCGC,-0.0498
8,ATGGTCCA,-0.25
9,CACAAAAC,0.206
10,CCCCATCC,0.00185
11,GAATTATC,0.145
12,ATGTCCGC,-0.077
13,CTGTCTGA,-0.147
14,TCTGTCAA,-0.0264
15,TGAGCAAA,0.114
16,TCGATCAA,-0.0607
17,AGAACGCA,-0.00096
18,CAATAACA,0.193
19,CAAGCTGC,-0.025
20,CCAAGGAC,-0.227
21,AGTGCTAC,-0.0926
22,AGAATTGC,0.11
23,CCTACATC,0.0465
24,GCTCATCA,-0.0104
25,ACAGACAC,-0.0499

row,Sequence,PBM E-score
1,CGTGCTTA,0.273
2,ACTATTCT,0.0707
3,GCCATCCC,-0.0504
4,CAATATAC,0.181
5,CTCGCGTC,0.0152
6,ACCGCATA,0.108
7,CCGGCGTC,-0.0574
8,AGTTGACA,0.119
9,ACACCGAT,-0.0975
10,CGGTATTC,0.0748
11,AAAGTTAT,0.193
12,CCAGATAG,-0.108
13,GGTATGAA,0.126
14,GGGTTGCA,-0.0486
15,AAGATTGC,-0.00556
16,CTGCGTGA,0.0468
17,ATTATATC,0.197
18,GAGCCCAA,0.185
19,CTCGAGTC,-0.101
20,CATGCACC,-0.208
21,ATGGAGAC,-0.00445
22,ATCTCGTA,-0.00241
23,AACGGAGT,0.115
24,CGAGGTGC,0.209
25,GCTAGCTA,-0.0995

# Reformatted: entries from further up
row	Sequence	PBM E-score
7	CGATGCCG	-0.246
8	CCCATCCA	0.0648
9	CAAAGCAA	0.137
10	CGAGCGGC	-0.0196
11	GCCAAACC	-0.207

# Continued:

row,Sequence,PBM E-score
1,GGTTAGAA,-0.1
2,TACTAGAA,0.0441
3,AGCAAATA,0.134
4,GGCTCTAA,0.0226
5,CAAGGGTC,-0.0649
6,AGGTCAAG,0.0294
7,CCCGCTTA,0.209
8,GCAGCTCC,-0.123
9,CGTAACGC,0.0362
10,CAGCCATG,-0.0224
11,GTTGCGTA,0.068
12,CGAAATAC,0.177
13,AAGCTATA,-0.0861
14,GGTGAAAC,-0.143
15,ACATGACC,-0.0885
16,TCAGATCA,-0.0379
17,GTACGAGA,-0.0307
18,AGTAAGAC,-0.0377
19,GAAACTCC,-0.209
20,CTTTTATC,0.158
21,CTTGTCCC,-0.0876
22,ATTTCGAA,0.188
23,CAGGCGAC,-0.141
24,AGTGTGGG,0.00697
25,AGCAAAGG,0.0298

row,Sequence,PBM E-score
1,GGCGATTA,0.133
2,AATGCTAA,0.113
3,ACGCAGAG,0.0271
4,GGTTAAGA,-0.121
5,CTATCTGA,-0.0877
6,GCCGTCGC,-0.0942
7,ACGCTTTA,-0.169
8,TAATCTGA,0.164
9,CAGGTCAC,-0.311
10,CGATTTCC,0.132
11,GGCAGATA,-0.00899
12,CCCACCGA,0.0271
13,GTAGTACA,0.131
14,ATCACGAT,0.0551
15,GGACAGGA,-0.275
16,ACGCTAAG,-0.222
17,ATCGAAGG,0.0406
18,GTGTGAAA,0.145
19,ATGTGCTA,0.0306
20,AACTTGAG,-0.188
21,AGTAACTC,0.0111
22,GTCCCACA,0.0921
23,CATCCACA,0.0448
24,CGACCATC,-0.0947
25,AGTGGAGA,0.0943

row,Sequence,PBM E-score
1,AAGGCTGG,-0.277
2,CCCAAAAG,0.0282
3,CTCACGAC,-0.248
4,ATAGTGGC,-0.00569
5,ATAGGGGG,-0.321
6,ACGACAGT,-0.0857
7,AATACTCA,0.183
8,TACGCGCA,0.0939
9,AGTCTGGC,-0.213
10,CGAACATC,0.0222
11,GTCCCAGA,-0.267
12,CCCGTGCA,-0.161
13,CCTCAGAG,-0.249
14,AGCCTTAG,-0.197
15,AGGTGTGC,-0.0771
16,ACATTATG,0.106
17,GATTGAAA,0.111
18,ACATGTTA,0.126
19,CTAGTATC,0.186
20,TAACACCA,0.0761
21,CATAAGCA,0.336
22,AACATACT,0.0533
23,CTATATGC,0.212
24,CGACGCTA,-0.11
25,AGCCGAGG,0.096

row,Sequence,PBM E-score
1,AATTTGAA,0.0459
2,GATCTAGC,-0.14
3,CCGATAAG,-0.0811
4,TCTCGAGA,0.0563
5,AGGTCTAT,-0.0147
6,AGATCAAT,0.139
7,GCTTATAA,0.229
8,ACCGCAGA,-0.176
9,CGTTGACC,0.00329
10,GAAGCATC,-0.0786
11,CCAATGGA,-0.00717
12,CAGCTGGC,-0.0922
13,ACCCCAGG,-0.273
14,CTTAACGC,-0.0843
15,AACCAGCT,0.118
16,AGTCAGAT,0.00282
17,CTGGAACC,-0.153
18,AGGCTATG,-0.192
19,CGTGATTA,0.273
20,CCAGGCGC,-0.268
21,GAGTTAAC,-0.0847
22,ACGACGAC,-0.109

# Reformatted bar-delimited: entries from further up.
row | Sequence | PBM E-score
13 | ACCCCAGG | -0.273
14 | CTTAACGC | -0.0843
15 | AACCAGCT | 0.118
16 | AGTCAGAT | 0.00282
17 | CTGGAACC | -0.153
18 | AGGCTATG | -0.192
